Experimental data published in patent publication US7868147B2, “Fluorescent probe” (Sekisui Medical Co., Ltd., priority 2003, dated 2011).
At least one structure is not confirmed: it was looked up by name or label, or the drawing left a doubt.

Tests used:
[1] = Fluorescence quantum yield; assay type: physicochemical; conditions: pH 13, xanthene OH deprotonated
From the text: (§1) Correlation between fluorescence quantum yield and the oxidation potential of the benzene ring moiety of each compound prepared above was studied. As clearly shown by the results in the figure, the fluorescence quantum yield of each compound changed depending on the oxidation potential of the benzene ring moiety. In an alkaline solution at pH 13, the OH group of the xanthene ring dissociates its proton to become an anion, and under this condition, the compound whose oxidation potential is 1.20V or lower became almost non-fluorescent, whereas the compound whose oxidation potential is 1.65V or higher emitted fluorescence with a quantum yield of almost 1. Between the two values, it was observed that the quantum yield decreases according to the decrease in the oxidation potential. An oxidation potential of the benzene ring under the acidic condition at pH 3.4, which has an influence on fluorescence, is different from that under a basic condition, i.e., the compound whose oxidation potential is 1.60V or lower is almost no fluorescent, whereas the compound whose oxidation potential is 1.90V or higher emitted fluorescence with a quantum yield of almost 0.3. It is known that the OH group of the xanthene ring is protonated at pH 3.4, and under this condition, the quantum yield of Fluorescein is about 0.3.

[2] = Maximum excitation and fluorescence wavelength of fluorescein derivatives; assay type: physicochemical; conditions: measured in 0.1 N aqueous NaOH
From the text: as §1

[3] = pH 3.4, known value; cited from earlier work

**Q.** For O=C1OC2(c3ccc(O)cc3Oc3cc(O)ccc32)c2ccccc21 [Fluorescein, reference compound], which “Φfl (pH 13)” value [1] is on record?
**A.** 0.850

**Q.** And the Maximum excitation wavelength [2]?
**A.** 492 nm

**Q.** What about the Maximum fluorescence wavelength [2] of the same compound?
**A.** 511 nm

**Q.** And the quantum yield [3]?
**A.** about 0.3
